Laboratory results: article PMC11815680, “Receptor-independent regulation of Gα13 by alpha-1-antitrypsin C-terminal peptides” (The Journal of Biological Chemistry, 2024)
These are yes or no findings as the source states them, for the method shown. Tags and fused reporters may be left off the sequences shown.

Legend:
[1] = molecular target: T1, GST-LARG-RH (human LARG amino acid residues 319-598) (human) (UniProt Q9NZN5); experiment: condition: only GDP with mAAT-C_(18-35), without AlF4^-; pull-down; as a2 but buffer A with 10 μM GDP and mAAT-C_(18-35) added instead of AlF4^-; both purified
T1 sequence: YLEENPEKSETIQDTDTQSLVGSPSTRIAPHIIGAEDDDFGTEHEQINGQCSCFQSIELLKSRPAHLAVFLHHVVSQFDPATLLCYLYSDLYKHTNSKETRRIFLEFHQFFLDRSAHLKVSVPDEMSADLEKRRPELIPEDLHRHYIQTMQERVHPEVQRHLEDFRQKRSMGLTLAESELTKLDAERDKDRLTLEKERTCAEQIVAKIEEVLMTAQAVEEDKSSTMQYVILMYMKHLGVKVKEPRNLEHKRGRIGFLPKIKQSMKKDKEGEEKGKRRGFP

[2] = molecular target: T2, GST-p115-RH (human p115RhoGEF amino acid residues 1-252, N-terminal region including the RH domain) (human) (UniProt Q92888); experiment: as above
T2 sequence: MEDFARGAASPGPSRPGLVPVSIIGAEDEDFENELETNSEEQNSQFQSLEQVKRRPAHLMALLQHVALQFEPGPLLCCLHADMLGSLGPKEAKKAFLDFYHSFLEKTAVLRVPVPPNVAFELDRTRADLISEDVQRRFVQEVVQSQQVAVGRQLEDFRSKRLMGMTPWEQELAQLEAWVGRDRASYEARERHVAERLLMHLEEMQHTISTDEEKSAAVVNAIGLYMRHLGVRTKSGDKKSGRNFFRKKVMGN

[3] = molecular target: T3, GST-p115-RH(42-252), the RGS box of p115-RhoGEF-RH which lacks the N-terminal extension (human) (UniProt Q92888); experiment: condition: only GDP with mAAT-C_(1-17)F11A, without AlF4^-; pull-down; as a2 but buffer A with 10 μM GDP and mAAT-C_(1-17)F11A added instead of AlF4^-; both purified
T3 sequence: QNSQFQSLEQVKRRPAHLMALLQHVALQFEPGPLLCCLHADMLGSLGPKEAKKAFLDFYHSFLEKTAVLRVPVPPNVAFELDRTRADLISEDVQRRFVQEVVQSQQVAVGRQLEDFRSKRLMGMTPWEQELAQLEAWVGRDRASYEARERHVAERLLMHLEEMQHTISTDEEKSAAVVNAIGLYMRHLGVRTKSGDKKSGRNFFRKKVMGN

[4] = molecular target: T1, GST-LARG-RH (human LARG amino acid residues 319-598) (human); experiment: condition: only GDP alone, without AlF4^- or mAAT-C peptide; pull-down; as a2 but GDP alone: buffer A with 10 μM GDP, without AlF4^- and without peptide; both purified
[5] = molecular target: T2, GST-p115-RH (human p115RhoGEF amino acid residues 1-252, N-terminal region including the RH domain) (human); experiment: as above

Measured: binding

B1: untagged Gα13iN recombinant protein (GDP-bound) (other, rat | mouse, UniProt P10824 1-28, looked up)
chain: MGCTLSAEDKAAVERSKMIDRNLREDGERLVKILLLGAGESGKSTFLKQMRIIHGQDFDQRAREEFRPTIYSNVIKGMRVLVDAREKLHIPWGDNKNQLHGDKLMAFDTRAPMAAQGMVETRVFLQYLPAIRALWEDSGIQNAYDRRREFQLGESVKYFLDNLDKLGVPDYIPSQQDILLARRPTKGIHEYDFEIKNVPFKMVDVGGQRSERKRWFECFDSVTSILFLVSSSEFDQVLMEDRQTNRLTESLNIFETIVNNRVFSNVSIILFLNKTDLLEEKVQVVSIKDYFLEFEGDPHCLRDVQKFLVECFRGKRRDQQQRPLYHHFTTAINTENIRLVFRDVKDTILHDNLKQLMLQ
notes: N-terminal region (αN helix) of rat Gαi1, amino acid residues 1-28; A few vector residues are likely left after PreScission cleavage of the pGEX-6P-1 product (surmise); also called Gα13iN・GDP; Gα13・GDP; source: E. coli BL21[DE3], purified (glutathione-sepharose 4B, cut off the column with PreScission Protease, dialysed; GDP added to 10 μM)
no binding: all assays above
